Some of the results follow.
Columns and labels:
Assay in all cases: glycan array binding signal (z-score within array); higher = stronger binding
Settings in all cases: glycan notation: IUPAC condensed, linker removed
[1] = molecular target: Fuc(a1-2)Gal6S(b1-3)GlcNAc6S
Outline: (§1)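 The binding signal is a Z-score computed within each array and averaged over linkers. Arrays of the same protein sequence at different concentrations or buffers were also averaged together. Data originate from 3228 arrays in the Consortium for Functional Glycomics database, kept only where the protein sequence was available.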

Fuc(a1-2)Gal6S(b1-4)Glc = molecular target: Fuc(a1-2)Gal6S(b1-4)Glc
Outline: as §1

[2] = molecular target: Fuc(a1-2)Gal6S(b1-4)Glc6S
Outline: as §1

Fuc(a1-2)[Gal(a1-3)]Gal = molecular target: Fuc(a1-2)[Gal(a1-3)]Gal
Outline: as §1

[3] = molecular target: Fuc(a1-2)[Gal(a1-3)]Gal(b1-3)GalNAc
Outline: as §1

[4] = molecular target: Fuc(a1-2)[Gal(a1-3)]Gal(b1-3)GalNAc(b1-3)Gal(a1-4)Gal(b1-4)Glc
Outline: as §1

[5] = molecular target: Fuc(a1-2)[Gal(a1-3)]Gal(b1-3)GlcNAc
Outline: as §1

[6] = molecular target: Fuc(a1-2)[Gal(a1-3)]Gal(b1-3)GlcNAc(b1-2)Man(a1-3)[Fuc(a1-2)[Gal(a1-3)]Gal(b1-3)GlcNAc(b1-2)Man(a1-6)]Man(b1-4)GlcNAc(b1-4)GlcNAc
Outline: as §1

[7] = molecular target: Fuc(a1-2)[Gal(a1-3)]Gal(b1-3)GlcNAc(b1-2)Man(a1-3)[Fuc(a1-2)[Gal(a1-3)]Gal(b1-3)GlcNAc(b1-2)Man(a1-6)]Man(b1-4)GlcNAc(b1-4)[Fuc(a1-6)]GlcNAc
Outline: as §1

[8] = molecular target: Fuc(a1-2)[Gal(a1-3)]Gal(b1-3)GlcNAc(b1-3)GalNAc
Outline: as §1

[9] = molecular target: Fuc(a1-2)[Gal(a1-3)]Gal(b1-3)GlcNAc(b1-6)GalNAc
Outline: as §1

[10] = molecular target: Fuc(a1-2)[Gal(a1-3)]Gal(b1-4)Glc
Outline: as §1

[11] = molecular target: Fuc(a1-2)[Gal(a1-3)]Gal(b1-4)GlcNAc
Outline: as §1

[12] = molecular target: Fuc(a1-2)[Gal(a1-3)]Gal(b1-4)GlcNAc(b1-2)Man
Outline: as §1

[13] = molecular target: Fuc(a1-2)[Gal(a1-3)]Gal(b1-4)GlcNAc(b1-2)Man(a1-3)[Fuc(a1-2)[Gal(a1-3)]Gal(b1-4)GlcNAc(b1-2)Man(a1-6)]Man(b1-4)GlcNAc(b1-4)GlcNAc
Outline: as §1

[14] = molecular target: Fuc(a1-2)[Gal(a1-3)]Gal(b1-4)GlcNAc(b1-2)Man(a1-3)[Fuc(a1-2)[Gal(a1-3)]Gal(b1-4)GlcNAc(b1-2)Man(a1-6)]Man(b1-4)GlcNAc(b1-4)[Fuc(a1-6)]GlcNAc
Outline: as §1

[15] = molecular target: Fuc(a1-2)[Gal(a1-3)]Gal(b1-4)GlcNAc(b1-3)GalNAc
Outline: as §1

[16] = molecular target: Fuc(a1-2)[Gal(a1-3)]Gal(b1-4)GlcNAc(b1-3)[Fuc(a1-2)[Gal(a1-3)]Gal(b1-4)GlcNAc(b1-6)]GalNAc
Outline: as §1

[17] = molecular target: Fuc(a1-2)[Gal(a1-3)]Gal(b1-4)GlcNAc(b1-6)GalNAc
Outline: as §1

[18] = molecular target: Fuc(a1-2)[Gal(a1-3)]Gal(b1-4)[Fuc(a1-3)]Glc
Outline: as §1

[19] = molecular target: Fuc(a1-2)[Gal(a1-3)]Gal(b1-4)[Fuc(a1-3)]GlcNAc
Outline: as §1

[20] = molecular target: Fuc(a1-2)[Gal(a1-3)]Gal(b1-4)[Fuc(a1-3)]GlcNAc(b1-3)GalNAc
Outline: as §1

[21] = molecular target: Fuc(a1-2)[Gal(a1-4)]Gal(b1-4)GlcNAc
Outline: as §1

[22] = molecular target: Fuc(a1-2)[GalNAc(a1-3)]Gal
Outline: as §1

[23] = molecular target: Fuc(a1-2)[GalNAc(a1-3)]Gal(b1-3)GalNAc(a1-3)[Fuc(a1-2)]Gal(b1-4)GlcNAc
Outline: as §1

[24] = molecular target: Fuc(a1-2)[GalNAc(a1-3)]Gal(b1-3)GalNAc(b1-3)Gal(a1-4)Gal(b1-4)Glc
Outline: as §1

[25] = molecular target: Fuc(a1-2)[GalNAc(a1-3)]Gal(b1-3)GlcNAc
Outline: as §1

[26] = molecular target: Fuc(a1-2)[GalNAc(a1-3)]Gal(b1-3)GlcNAc(b1-2)Man(a1-3)[Fuc(a1-2)[GalNAc(a1-3)]Gal(b1-3)GlcNAc(b1-2)Man(a1-6)]Man(b1-4)GlcNAc(b1-4)GlcNAc
Outline: as §1

[27] = molecular target: Fuc(a1-2)[GalNAc(a1-3)]Gal(b1-3)GlcNAc(b1-2)Man(a1-3)[Fuc(a1-2)[GalNAc(a1-3)]Gal(b1-3)GlcNAc(b1-2)Man(a1-6)]Man(b1-4)GlcNAc(b1-4)[Fuc(a1-6)]GlcNAc
Outline: as §1

[28] = molecular target: Fuc(a1-2)[GalNAc(a1-3)]Gal(b1-3)GlcNAc(b1-3)GalNAc
Outline: as §1

[29] = molecular target: Fuc(a1-2)[GalNAc(a1-3)]Gal(b1-3)GlcNAc(b1-6)GalNAc
Outline: as §1

[30] = molecular target: Fuc(a1-2)[GalNAc(a1-3)]Gal(b1-4)Glc
Outline: as §1

[31] = molecular target: Fuc(a1-2)[GalNAc(a1-3)]Gal(b1-4)GlcNAc
Outline: as §1

[32] = molecular target: Fuc(a1-2)[GalNAc(a1-3)]Gal(b1-4)GlcNAc(b1-2)Man
Outline: as §1

[33] = molecular target: Fuc(a1-2)[GalNAc(a1-3)]Gal(b1-4)GlcNAc(b1-2)Man(a1-3)[Fuc(a1-2)[GalNAc(a1-3)]Gal(b1-4)GlcNAc(b1-2)Man(a1-6)]Man(b1-4)GlcNAc(b1-4)GlcNAc
Outline: as §1

[34] = molecular target: Fuc(a1-2)[GalNAc(a1-3)]Gal(b1-4)GlcNAc(b1-2)Man(a1-3)[Fuc(a1-2)[GalNAc(a1-3)]Gal(b1-4)GlcNAc(b1-2)Man(a1-6)]Man(b1-4)GlcNAc(b1-4)[Fuc(a1-6)]GlcNAc
Outline: as §1

[35] = molecular target: Fuc(a1-2)[GalNAc(a1-3)]Gal(b1-4)GlcNAc(b1-3)Gal(b1-4)GlcNAc
Outline: as §1

[36] = molecular target: Fuc(a1-2)[GalNAc(a1-3)]Gal(b1-4)GlcNAc(b1-3)Gal(b1-4)GlcNAc(b1-3)Gal(b1-4)GlcNAc
Outline: as §1

[37] = molecular target: Fuc(a1-2)[GalNAc(a1-3)]Gal(b1-4)GlcNAc(b1-3)GalNAc
Outline: as §1

[38] = molecular target: Fuc(a1-2)[GalNAc(a1-3)]Gal(b1-4)GlcNAc(b1-3)[Fuc(a1-2)[GalNAc(a1-3)]Gal(b1-4)GlcNAc(b1-6)]GalNAc
Outline: as §1

[39] = molecular target: Fuc(a1-2)[GalNAc(a1-3)]Gal(b1-4)GlcNAc(b1-6)GalNAc
Outline: as §1

[40] = molecular target: Fuc(a1-2)[GalNAc(a1-3)]Gal(b1-4)[Fuc(a1-3)]GlcNAc
Outline: as §1

[41] = molecular target: Fuc(a1-2)[GalNAc(a1-3)]Gal(b1-4)[Fuc(a1-3)]GlcNAc(b1-3)GalNAc
Outline: as §1

[42] = molecular target: Fuc(a1-2)[GalNAc(a1-4)]Gal(b1-4)GlcNAc
Outline: as §1

[43] = molecular target: Fuc(a1-2)[GalNAc(b1-3)]Gal
Outline: as §1

B1: PX14343G-pdi-535-24-535 (Parabacteroides distasonis) (protein)
chain: LDTVPKDQLAPSTTWQTEADAKGFIVGCYKDLLDGNTLLYLDCGSDIGYNNFPWEGFRPWGDGSLSSSNPGQILYDYKSIRKANTFLENVDKVTFSSDAVKANYVAQAKAIRAYKYFLMNWWYGGVPIISSYSSADEAKVERNTEQEVRDYIAKDLDEALAGIAEAPEARGYIAKGAVLAIKMREALYYGDWQKAKDAAKAIIDLKQYELDPDYTNLFKVSGVDSKEIILADQNIETLDGLGTIGQMYNNVDQGWSSIVPTQNLVDMYEMSDGLTKEESKTYDAKHPFANRDPRMAMTILYPGRDWRGDVLNTLDEKLQDGTVNKNFPTYTDNASKSALTWAKYLDPMDQYGDVWSSGACPIVFRYAEVLLTYAEAANELSGPSDEIYGYLNQIRQRVGMGEVDKAKYGTKDKLRELIRRERTVELAGEGLRRADIVRWQEDGKMLAEKVMNGDLLRVTGTINYGESEPTKRAEITGTAVIETRQFSSRNRYLPIPQTSMDKNPNLKQNPGY
glycan array binding signal (z-score) [1]: 0.336
glycan array binding signal (z-score) (Fuc(a1-2)Gal6S(b1-4)Glc): 0.412
glycan array binding signal (z-score) [2]: -0.072
glycan array binding signal (z-score) (Fuc(a1-2)[Gal(a1-3)]Gal): 0.083
glycan array binding signal (z-score) [3]: 0.187
glycan array binding signal (z-score) [4]: -0.638
glycan array binding signal (z-score) [5]: 0.064
glycan array binding signal (z-score) [6]: -0.612
glycan array binding signal (z-score) [7]: -0.242
glycan array binding signal (z-score) [8]: -0.095
glycan array binding signal (z-score) [9]: -0.246
glycan array binding signal (z-score) [10]: 0.432
glycan array binding signal (z-score) [11]: -0.577
glycan array binding signal (z-score) [12]: -1.2
glycan array binding signal (z-score) [13]: 2.43
glycan array binding signal (z-score) [14]: -0.826
glycan array binding signal (z-score) [15]: -0.357
glycan array binding signal (z-score) [16]: -0.8
glycan array binding signal (z-score) [17]: -0.274
glycan array binding signal (z-score) [18]: 1
glycan array binding signal (z-score) [19]: -0.566
glycan array binding signal (z-score) [20]: 0.124
glycan array binding signal (z-score) [21]: -0.248
glycan array binding signal (z-score) [22]: -0.184
glycan array binding signal (z-score) [23]: -0.789
glycan array binding signal (z-score) [24]: -1.02
glycan array binding signal (z-score) [25]: 0.125
glycan array binding signal (z-score) [26]: 0.307
glycan array binding signal (z-score) [27]: -1.2
glycan array binding signal (z-score) [28]: -0.017
glycan array binding signal (z-score) [29]: -0.366
glycan array binding signal (z-score) [30]: -0.666
glycan array binding signal (z-score) [31]: -0.63
glycan array binding signal (z-score) [32]: -0.554
glycan array binding signal (z-score) [33]: 0.403
glycan array binding signal (z-score) [34]: -0.351
glycan array binding signal (z-score) [35]: -0.639
glycan array binding signal (z-score) [36]: 0.671
glycan array binding signal (z-score) [37]: 0.305
glycan array binding signal (z-score) [38]: -0.346
glycan array binding signal (z-score) [39]: -0.41
glycan array binding signal (z-score) [40]: -0.896
glycan array binding signal (z-score) [41]: 1.07
glycan array binding signal (z-score) [42]: -0.362
glycan array binding signal (z-score) [43]: -0.494

Source: the supplement of paper PMC8728848
